Laboratory results published in publication PMC7653252.
Results are given in words; binding and its absence hold for the method and conditions named. In cells and extracts the contact can be indirect. Some binding calls cover weakened binding; strength is not graded here.

The chains behind the UniProt entries cited, without tags or fusion partners.
UniProt Q96RE9: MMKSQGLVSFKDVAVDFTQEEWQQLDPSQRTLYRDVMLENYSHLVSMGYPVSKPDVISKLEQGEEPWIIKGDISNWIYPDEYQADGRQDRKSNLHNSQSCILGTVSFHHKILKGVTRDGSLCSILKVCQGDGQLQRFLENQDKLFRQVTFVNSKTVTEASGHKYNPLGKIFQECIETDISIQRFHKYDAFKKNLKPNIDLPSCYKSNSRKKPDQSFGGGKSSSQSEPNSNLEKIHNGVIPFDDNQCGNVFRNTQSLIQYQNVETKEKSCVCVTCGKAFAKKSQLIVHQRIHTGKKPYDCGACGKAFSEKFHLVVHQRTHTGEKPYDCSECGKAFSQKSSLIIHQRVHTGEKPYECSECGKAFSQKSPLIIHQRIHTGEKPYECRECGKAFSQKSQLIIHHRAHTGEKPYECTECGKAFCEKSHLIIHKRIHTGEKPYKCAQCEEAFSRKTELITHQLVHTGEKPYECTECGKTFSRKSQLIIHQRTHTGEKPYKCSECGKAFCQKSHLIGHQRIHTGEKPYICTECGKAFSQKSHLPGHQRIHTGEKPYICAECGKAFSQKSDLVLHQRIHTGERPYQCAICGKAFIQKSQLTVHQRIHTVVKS
UniProt O00716: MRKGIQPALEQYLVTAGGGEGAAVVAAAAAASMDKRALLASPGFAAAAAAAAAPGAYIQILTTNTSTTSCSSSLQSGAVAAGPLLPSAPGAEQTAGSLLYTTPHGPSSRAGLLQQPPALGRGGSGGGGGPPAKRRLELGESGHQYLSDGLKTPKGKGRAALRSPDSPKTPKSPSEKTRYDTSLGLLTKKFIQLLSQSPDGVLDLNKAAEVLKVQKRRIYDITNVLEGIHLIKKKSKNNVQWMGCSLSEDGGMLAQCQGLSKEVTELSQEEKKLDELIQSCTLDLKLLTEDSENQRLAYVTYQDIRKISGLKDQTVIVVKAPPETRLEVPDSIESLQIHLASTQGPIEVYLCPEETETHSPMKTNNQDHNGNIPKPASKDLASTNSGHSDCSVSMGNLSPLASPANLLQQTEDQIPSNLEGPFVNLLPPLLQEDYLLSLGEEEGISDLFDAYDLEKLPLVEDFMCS

Target: ZNF300 (human) (UniProt Q96RE9)
Assay: co-IP; FLAG-ZNF300 expressed in A549 cells; pre-cleared whole-cell lysates incubated with rabbit anti-Flag antibody; precipitate immunoblotted

binding: binds
Substance: E2F3 (from UniProt O00716 1-465)
